# Measurements reported in patent publication US20220305115A1 (JANSSEN SCIENCES IRELAND UNLIMITED COMPANY, priority 2019, published 2022).
# The chains behind the UniProt entries cited, without tags or fusion partners. Residues count along the entry.
# UniProt Q9NYK1, 27-1049 limits assumed: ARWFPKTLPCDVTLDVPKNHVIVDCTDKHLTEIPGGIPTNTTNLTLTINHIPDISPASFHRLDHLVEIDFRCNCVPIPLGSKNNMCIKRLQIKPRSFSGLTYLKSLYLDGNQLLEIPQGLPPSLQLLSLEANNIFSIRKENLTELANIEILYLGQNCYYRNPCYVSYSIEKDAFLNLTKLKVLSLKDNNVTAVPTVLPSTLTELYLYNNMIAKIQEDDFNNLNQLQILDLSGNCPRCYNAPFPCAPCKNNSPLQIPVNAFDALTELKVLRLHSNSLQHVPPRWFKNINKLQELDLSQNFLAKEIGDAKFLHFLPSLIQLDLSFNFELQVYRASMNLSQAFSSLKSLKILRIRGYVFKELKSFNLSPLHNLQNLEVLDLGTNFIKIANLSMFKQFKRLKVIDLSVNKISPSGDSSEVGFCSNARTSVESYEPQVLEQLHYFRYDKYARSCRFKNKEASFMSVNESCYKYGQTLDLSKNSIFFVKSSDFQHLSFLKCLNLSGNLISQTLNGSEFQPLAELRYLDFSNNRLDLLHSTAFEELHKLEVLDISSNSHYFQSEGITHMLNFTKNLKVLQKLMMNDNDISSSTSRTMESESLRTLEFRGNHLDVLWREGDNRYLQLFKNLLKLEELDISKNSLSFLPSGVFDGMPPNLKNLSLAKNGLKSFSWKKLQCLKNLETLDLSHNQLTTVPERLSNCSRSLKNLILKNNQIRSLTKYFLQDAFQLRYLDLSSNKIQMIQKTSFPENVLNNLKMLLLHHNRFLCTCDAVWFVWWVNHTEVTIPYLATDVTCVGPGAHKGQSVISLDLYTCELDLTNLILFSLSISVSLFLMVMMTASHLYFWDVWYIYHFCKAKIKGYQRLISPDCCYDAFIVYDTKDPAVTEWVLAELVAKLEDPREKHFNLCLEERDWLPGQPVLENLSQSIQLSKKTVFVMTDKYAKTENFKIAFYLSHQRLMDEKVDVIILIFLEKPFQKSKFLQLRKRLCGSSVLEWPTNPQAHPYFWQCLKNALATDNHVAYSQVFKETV
# UniProt Q9NR97, 27-1041 limits assumed: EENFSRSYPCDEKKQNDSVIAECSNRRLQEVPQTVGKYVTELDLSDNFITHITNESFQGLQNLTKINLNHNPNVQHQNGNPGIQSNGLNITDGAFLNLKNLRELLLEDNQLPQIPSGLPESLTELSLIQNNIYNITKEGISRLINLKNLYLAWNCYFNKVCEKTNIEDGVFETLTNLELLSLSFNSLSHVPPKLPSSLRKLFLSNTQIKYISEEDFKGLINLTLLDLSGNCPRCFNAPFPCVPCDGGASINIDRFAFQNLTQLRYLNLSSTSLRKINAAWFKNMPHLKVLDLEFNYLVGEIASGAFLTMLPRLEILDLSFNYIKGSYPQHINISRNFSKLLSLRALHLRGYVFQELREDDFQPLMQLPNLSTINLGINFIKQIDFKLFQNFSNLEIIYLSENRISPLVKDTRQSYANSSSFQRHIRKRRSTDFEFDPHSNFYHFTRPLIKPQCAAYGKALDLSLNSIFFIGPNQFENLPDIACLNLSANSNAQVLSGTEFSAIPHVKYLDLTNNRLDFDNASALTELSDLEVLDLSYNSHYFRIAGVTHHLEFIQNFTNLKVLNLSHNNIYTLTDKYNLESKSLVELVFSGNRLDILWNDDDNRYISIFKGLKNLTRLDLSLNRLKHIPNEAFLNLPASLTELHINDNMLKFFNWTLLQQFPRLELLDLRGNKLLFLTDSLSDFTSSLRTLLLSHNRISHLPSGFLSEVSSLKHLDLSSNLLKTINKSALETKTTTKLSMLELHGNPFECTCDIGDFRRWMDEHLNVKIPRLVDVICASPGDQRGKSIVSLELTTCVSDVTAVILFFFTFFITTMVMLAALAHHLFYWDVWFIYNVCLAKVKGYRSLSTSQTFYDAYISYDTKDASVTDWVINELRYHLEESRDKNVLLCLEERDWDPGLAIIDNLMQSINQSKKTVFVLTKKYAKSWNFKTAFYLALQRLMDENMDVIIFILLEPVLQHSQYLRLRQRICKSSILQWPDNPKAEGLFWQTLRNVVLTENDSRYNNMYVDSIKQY
# The structures given here were assigned with low confidence; some may be wrong.
# Assays:
# human TLR7 = human TLR7 (Homo sapiens, UniProt Q9NYK1); test: HEK-Blue human TLR7 cell SEAP reporter assay (NF-κB activation); conditions: read-out: human TLR7 EC50, HEK-Blue human TLR7 cells, stimulation for 20 hours, Quanti Blue read at 640 nm
# Source text: (§1) For TLR8 and TLR7 activity testing, HEK-Blue human TLR8 or TLR7 cells (Invivogen, San Diego, Calif., USA) are used, respectively. These cells are designed for studying the stimulation of human TLR8 or TLR7 by monitoring the activation of NF-κB. A SEAP (secreted embryonic alkaline phosphatase) reporter gene is placed under the control of the IFN-b minimal promoter fused to five NF-κB and AP-1-binding sites. Therefore the reporter expression is regulated by the NF-κB promoter upon stimulation of human TLR8 or TLR7 for 20 hours. The cell culture supernatant SEAP reporter activity was determined using Quanti Blue kit (Invivogen, San Diego, Ca, USA) at a wavelength of 640 nm, a detection medium that turns purple/blue in the presence of alkaline phosphatase. EC50 values were determined using Activity Base analysis (ID Business Solution, Limited).
# human TLR8 = human TLR8 (Homo sapiens, UniProt Q9NR97); test: HEK-Blue human TLR8 cell SEAP reporter assay (NF-κB activation); conditions: read-out: human TLR8 EC50, HEK-Blue human TLR8 cells, stimulation for 20 hours, Quanti Blue read at 640 nm
# Source text: as §1
# IFNα = test: PBMC cytokine profiling assay, IFNα induction; format: cell-based; conditions: read-out: IFNα AC50; human PBMCs, 24 hours incubation
# Description: (§2) Compounds were dissolved and stored in DMSO (Sigma-Aldrich, St. Louis, Mo.) at 10 mM concentration.
# (§3) Cryopreserved human PBMCs isolated from healthy donors were purchased from StemCell Technologies (Vancouver, Canada). Cell culture medium used was RPMI with L-Glutamine (Mediatech, Manassas, Va.) supplemented with 10% fetal bovine serum (Hyclone, GE Healthcare, Logan, Utah) and Penicillin-Streptomycin (Mediatech). Human TNFα, IL12p40, and IFNα2a 384-well Assay capture plates, standards, buffers and processing reagents were obtained from MesoScale Discovery Technologies (MSD; Rockville, Md.).
# (§4) Cryopreserved human PBMCs (1×10e8 cells/ml) were thawed at 37° C. and resuspended in 25 mL warm cell culture medium. The cells were pelleted at 200×g (Beckman Avanti J-E) for 5 min and resuspended in 20 mL of fresh culture media. Cells were counted using a Cellometer (Nexcelcom Bioscience), adjusted to 2×10e6 cells, and incubated for 2 hours in an incubator set at 37° C., 5% CO2 to recover from cryopreservation. […]
# (§5) Using a Biomek FX 384 well pipetting station (Beckman), conditioned culture medium (CCM) from the assay plate was transferred to MSD capture plates customized for each cytokine. […] MSD Read Buffer diluted to 2× in deionized water and 35 μL/well was added via Biomek FX instrument. The plates were read immediately in a MSD6000 reader. […]
# TNFα = test: PBMC cytokine profiling assay, TNFα induction; format: cell-based; conditions: read-out: TNFα AC50; human PBMCs, 24 hours incubation
# Description: as §2, §3, §4, §5
# IL12p40 = test: PBMC cytokine profiling assay, IL12-p40 induction; format: cell-based; conditions: read-out: IL12p40 AC50; human PBMCs, 24 hours incubation
# Description: as §2, §3, §4, §5
smiles,measurement,setting,value
CCCN(CCC)C(=O)C1=Cc2ccc(C3=NCc4cc(OC)ccc4N3)cc2N=C(N)C1,EC50,human TLR7,> 100 µM
same,EC50,human TLR8,0.002 µM
same,AC50,IFNα,6.9 µM
same,AC50,TNFα,10.1 µM
same,AC50,IL12p40,6 µM
